This passage reports binding results from patent publication US6897294.

Chains of the proteins cited; added tags and fusions are not shown. Lines headed by an entry give the natural chain unless they say otherwise; changes in a name come on top. A line that says so, or that is headed by a name, gives the form on record, which may keep a tag or linker.
UniProt P35916: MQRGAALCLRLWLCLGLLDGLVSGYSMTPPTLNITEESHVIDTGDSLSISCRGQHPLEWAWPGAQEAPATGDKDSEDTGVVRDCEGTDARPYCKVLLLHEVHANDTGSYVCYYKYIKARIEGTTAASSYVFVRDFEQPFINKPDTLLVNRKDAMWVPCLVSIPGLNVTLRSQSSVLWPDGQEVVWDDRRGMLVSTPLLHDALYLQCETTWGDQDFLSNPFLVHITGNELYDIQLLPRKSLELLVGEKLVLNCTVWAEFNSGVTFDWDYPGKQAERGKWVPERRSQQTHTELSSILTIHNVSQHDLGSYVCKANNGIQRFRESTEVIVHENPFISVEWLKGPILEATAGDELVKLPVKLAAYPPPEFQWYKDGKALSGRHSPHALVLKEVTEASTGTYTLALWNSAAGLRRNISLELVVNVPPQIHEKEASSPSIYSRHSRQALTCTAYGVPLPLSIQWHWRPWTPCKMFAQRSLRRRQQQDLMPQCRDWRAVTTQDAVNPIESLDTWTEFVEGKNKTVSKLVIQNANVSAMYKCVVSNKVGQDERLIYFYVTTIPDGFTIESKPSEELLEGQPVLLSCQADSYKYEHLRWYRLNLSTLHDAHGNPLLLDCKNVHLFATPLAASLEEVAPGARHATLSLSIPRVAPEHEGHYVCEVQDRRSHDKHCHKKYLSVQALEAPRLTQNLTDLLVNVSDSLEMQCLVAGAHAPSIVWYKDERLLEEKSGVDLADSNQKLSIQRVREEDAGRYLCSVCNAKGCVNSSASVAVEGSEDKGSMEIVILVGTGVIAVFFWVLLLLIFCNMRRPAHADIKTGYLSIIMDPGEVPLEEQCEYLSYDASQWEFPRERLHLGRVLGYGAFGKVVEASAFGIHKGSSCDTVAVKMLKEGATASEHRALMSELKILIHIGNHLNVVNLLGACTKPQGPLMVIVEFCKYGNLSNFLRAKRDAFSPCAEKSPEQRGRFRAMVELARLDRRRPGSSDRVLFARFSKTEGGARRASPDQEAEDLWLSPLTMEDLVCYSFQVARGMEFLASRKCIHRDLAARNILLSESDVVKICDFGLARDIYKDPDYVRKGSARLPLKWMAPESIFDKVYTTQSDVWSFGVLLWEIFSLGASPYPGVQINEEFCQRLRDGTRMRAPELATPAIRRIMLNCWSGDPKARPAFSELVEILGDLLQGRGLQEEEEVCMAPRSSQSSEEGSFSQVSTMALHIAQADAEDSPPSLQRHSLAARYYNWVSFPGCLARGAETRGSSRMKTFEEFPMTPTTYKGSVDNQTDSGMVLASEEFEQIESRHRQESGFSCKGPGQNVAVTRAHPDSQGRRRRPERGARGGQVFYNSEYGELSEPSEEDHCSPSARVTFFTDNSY
vascular endothelial growth factor VEGF165 (P15692, form named): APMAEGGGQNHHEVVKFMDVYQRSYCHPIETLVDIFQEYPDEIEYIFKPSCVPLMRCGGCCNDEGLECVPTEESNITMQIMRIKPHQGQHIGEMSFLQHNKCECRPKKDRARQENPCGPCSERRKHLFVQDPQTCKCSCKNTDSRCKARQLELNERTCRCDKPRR

Assay [1] addresses flt-1(1, 2, 3)/FLT4 chimeric receptor (human). As to the kind of experiment: saturation binding of 125I-VEGF to transiently transfected 293 cells.
The target in assay [2] is flt-1(2)/FLT4 chimeric receptor (human) (UniProt P35916). The description is as above.

These are yes or no findings as the source states them, for the method shown. Some binding calls cover weakened binding; strength is not graded here.

For the substance “vascular endothelial growth factor VEGF165 (from UniProt P15692 27-191) (ligand)”, the binding entry in assay [1] and in assay [2] was “binds” in each case.
